Experimental data published in PMC12124498.

By UniProt entry, the sequences of proteins in these tests, tags left out.
UniProt P26368: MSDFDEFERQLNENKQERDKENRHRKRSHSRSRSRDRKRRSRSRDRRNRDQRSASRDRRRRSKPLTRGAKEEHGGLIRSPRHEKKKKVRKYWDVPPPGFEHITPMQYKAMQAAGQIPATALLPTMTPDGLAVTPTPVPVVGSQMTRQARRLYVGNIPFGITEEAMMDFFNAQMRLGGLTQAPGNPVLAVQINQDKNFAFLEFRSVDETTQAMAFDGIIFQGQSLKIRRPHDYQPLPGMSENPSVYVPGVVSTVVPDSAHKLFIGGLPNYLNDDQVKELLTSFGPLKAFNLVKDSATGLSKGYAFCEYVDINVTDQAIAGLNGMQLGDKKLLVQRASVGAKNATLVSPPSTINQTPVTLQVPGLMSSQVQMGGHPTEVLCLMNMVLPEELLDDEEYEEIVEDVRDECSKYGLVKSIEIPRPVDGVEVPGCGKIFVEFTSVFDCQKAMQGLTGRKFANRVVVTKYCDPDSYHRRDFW

Target: U2AF2-TurboID-HA (human) (UniProt P26368)
Experiment: proximity labelling; U2AF2-TurboID-HA induced with doxycycline for 4 h in mesoderm cells differentiated from hiPSC (CHIR99021, 24 h); biotinylated proteins purified on streptavidin magnetic beads, LC-MS with label-free quantification; hits: Log2ΔLFQ >= 2 and p <= 0.05, mesoderm against pluripotent U2AF2-TurboID samples or against GFP-TurboID

B1: KHSRP (protein, UniProt Q92945 1-711)
chain: MSDYSTGGPPPGPPPPAGGGGGAGGAGGGPPPGPPGAGDRGGGGPGGGGPGGGSAGGPSQPPGGGGPGIRKDAFADAVQRARQIAAKIGGDAATTVNNSTPDFGFGGQKRQLEDGDQPESKKLASQGDSISSQLGPIHPPPRTSMTEEYRVPDGMVGLIIGRGGEQINKIQQDSGCKVQISPDSGGLPERSVSLTGAPESVQKAKMMLDDIVSRGRGGPPGQFHDNANGGQNGTVQEIMIPAGKAGLVIGKGGETIKQLQERAGVKMILIQDGSQNTNVDKPLRIIGDPYKVQQACEMVMDILRERDQGGFGDRNEYGSRIGGGIDVPVPRHSVGVVIGRSGEMIKKIQNDAGVRIQFKQDDGTGPEKIAHIMGPPDRCEHAARIINDLLQSLRSGPPGPPGGPGMPPGGRGRGRGQGNWGPPGGEMTFSIPTHKCGLVIGRGGENVKAINQQTGAFVEISRQLPPNGDPNFKLFIIRGSPQQIDHAKQLIEEKIEGPLCPVGPGPGGPGPAGPMGPFNPGPFNQGPPGAPPHAGGPPPHQYPPQGWGNTYPQWQPPAPHDPSKAAAAAADPNAAWAAYYSHYYQQPPGPVPGPAPAPAAPPAQGEPPQPPPTGQSDYTKAWEEYYKKIGQQPQQPGAPPQQDYTKAWEEYYKKQAQVATGGGPGAPPGSQPDYSAAWAEYYRQQAAYYGQTPGPGGPQPPPTQQGQQQAQ
  binding: binds

These are yes or no findings as the source states them, for the method shown. Binding seen in cells or lysates may run through a third protein. A yes stands for co-enrichment or nearness to the bait. Other partners may have been found.
